US20250283871A1, “COMPOSITIONS AND METHODS FOR MODULATING THE INTERACTION BETWEEN SS18-SSX FUSION ONCOPROTEIN AND NUCLEOSOMES” (Dana-Farber Cancer Institute, Inc., priority 2020, published 2025)

Test system: BAF complex subunits and histone proteins
Experiment: Mass spectrometry proteomics of purified HA-SS18 WT and HA-SS18-SSX1 complexes (Tables 5A-5E)
Set-up: species or system human
[1] = HA-SS18SSX1_NE_peptides: protein co-purified with HA-SS18-SSX1 BAF complexes from soluble nuclear extract (NE), HEK-293T cells
[2] = HA-SS18WT_NE_peptides: proteins co-purified with HA-SS18 WT from nuclear extract (NE), HEK-293T
[3] = HA-SS18WT_NE_peptides: HA-SS18 WT complexes purified from nuclear extract (NE), HEK-293T, label = protein identified (Gene Symbol)
[4] = HA-SS18SSX1 purification, NE (soluble nuclear extract) fraction, HEK-293T, peptides per identified protein
[5] = HA-SS18WT_CHR_peptides: protein identified in HA-SS18 WT BAF complex purification from nuclease-treated solubilized chromatin (CHR), HEK-293T

| Molecule | Total (peptides) [1] | Unique (peptides) [1] | other results |
| --- | --- | --- | --- |
| VMP1 (protein, UniProt Q96GC9 2-406, looked up) Vacuole membrane protein 1: AENGKNCDQRRVAMNKEHHNGNFTDPSSVNEKKRREREERQNIVLWRQPLITLQYFSLEILVILKEWTSKLWHRQSIVVSFLLLLAVLIATYYVEGVHQQYVQRIEKQFLLYAYWIGLGILSSVGLGTGLHTFLLYLGPHIASVTLAAYECNSVNFPEPPYPDQIICPDEEGTEGTISLWSIISKVRIEACMWGIGTAIGELPPYFMARAARLSGAEPDDEEYQEFEEMLEHAESAQDFASRAKLAVQKLVQKVGFFGILACASIPNPLFDLAGITCGHFLVPFWTFFGATLIGKAIIKMHIQKIFVIITFSKHIVEQMVAFIGAVPGIGPSLQKPFQEYLEAQRQKLHHKSEMGTPQGENWLSWMFEKLVVVMVCYFILSIINSMAQSYAKRIQQRLNSEEKTK | 1 | 1 | Total (peptides) [2]: 2; Unique (peptides) [2]: 2 |
| D2HGDH (protein, UniProt Q8N465 14-521, looked up) D-2-hydroxyglutarate …: LRGAPGAAGSWGRPVGPLARRGCCSAPGTPEVPLTRERYPVRRLPFSTVSKQDLAAFERIVPGGVVTDPEALQAPNVDWLRTLRGCSKVLLRPRTSEEVSHILRHCHERNLAVNPQGGNTGMVGGSVPVFDEIILSTARMNRVLSFHSVSGILVCQAGCVLEELSRYVEERDFIMPLDLGAKGSCHIGGNVATNAGGLRFLRYGSLHGTVLGLEVVLADGTVLDCLTSLRKDNTGYDLKQLFIGSEGTLGIITTVSILCPPKPRAVNVAFLGCPGFAEVLQTFSTCKGMLGEILSAFEFMDAVCMQLVGRHLHLASPVQESPFYVLIETSGSNAGHDAEKLGHFLEHALGSGLVTDGTMATDQRKVKMLWALRERITEALSRDGYVYKYDLSLPVERLYDIVTDLRARLGPHAKHVVGYGHLGDGNLHLNVTAEAFSPSLLAALEPHVYEWTAGQQGSVSAEHGVGFRKRDVLGYSKPPGALQLMQQLKALLDPKGILNPYKTLPSQA | 1 | 1 | Total (peptides) [3]: 2; Unique (peptides) [3]: 2 |
| CLN6 (protein, UniProt Q9NWW5 1-311, looked up) Ceroid-lipofuscinosis …: MEATRRRQHLGATGGPGAQLGASFLQARHGSVSADEAARTAPFHLDLWFYFTLQNWVLDFGRPIAMLVFPLEWFPLNKPSVGDYFHMAYNVITPFLLLKLIERSPRTLPRSITYVSIIIFIMGASIHLVGDSVNHRLLFSGYQHHLSVRENPIIKNLKPETLIDSFELLYYYDEYLGHCMWYIPFFLILFMYFSGCFTASKAESLIPGPALLLVAPSGLYYWYLVTEGQIFILFIFTFFAMLALVLHQKRKRLFLDSNGLFLFSSFALTLLLVALWVAWLWNDPVLRKKYPGVIYVPEPWAFYTLHVSSRH | 1 | 1 |  |
| FARP2 (protein, UniProt O94887 1-1054, looked up) FERM, ARHGEF and pleckstrin …: MGEIEGTYRVLQTAGMRLGAQTPVGVSTLEPGQTLLPRMQEKHLHLRVKLLDNTMEIFDIEPKCDGQVLLTQVWKRLNLVECDYFGMEFQNTQSYWIWLEPMKPIIRQIRRPKNVVLRLAVKFFPPDPGQLQEEYTRYLFALQLKRDLLEERLTCADTTAALLTSHLLQSEIGDYDETLDREHLKVNEYLPGQQHCLEKILEFHQKHVGQTPAESDFQVLEIARKLEMYGIRFHMASDREGTKIQLAVSHMGVLVFQGTTKINTFNWSKVRKLSFKRKRFLIKLHPEVHGPYQDTLEFLLGSRDECKNFWKICVEYHTFFRLLDQPKPKAKAVFFSRGSSFRYSGRTQKQLVDYFKDSGMKRIPYERRHSKTHTSVRALTADLPKQSISFPEGLRTPASPSSANAFYSLSPSTLVPSGLPEFKDSSSSLTDPQVSYVKSPAAERRSGAVAGGPDTPSAQPLGPPALQPGPGLSTKSPQPSPSSRKSPLSLSPAFQVPLGPAEQGSSPLLSPVLSDAGGAGMDCEEPRHKRVPADEAYFIVKEILATERTYLKDLEVITVWFRSAVVKEDAMPATLMTLLFSNIDPIYEFHRGFLREVEQRLALWEGPSKAHTKGSHQRIGDILLRNMRQLKEFTSYFQRHDEVLTELEKATKRCKKLEAVYKEFELQKVCYLPLNTFLLKPIQRLLHYRLLLRRLCGHYSPGHHDYADCHDALKAITEVTTTLQHILIRLENLQKLTELQRDLVGIENLIAPGREFIREGCLHKLTKKGLQQRMFFLFSDMLLYTSKGVAGTSHFRIRGLLPLQGMLVEESDNEWSVPHCFTIYAAQKTIVVAASTRLEKEKWMLDLNSAIQAAKSGGDTAPALPGRTVCTRPPRSPNEVSLEQESEDDARGVRSSLEGHGQHRANTTMHVCWYRNTSVSRADHSAAVENQLSGYLLRKFKNSHGWQKLWVVFTNFCLFFYKTHQDDYPLASLPLLGYSVSIPREADGIHKDYVFKLQFKSHVYFFRAESKYTFERWMEVIQGASSSAGRAPSIVQDGPQPSSGLEGMVRGKEE | 1 | 1 |  |
| MFN2 (protein, UniProt O95140 1-757, looked up) Mitofusin-2: MSLLFSRCNSIVTVKKNKRHMAEVNASPLKHFVTAKKKINGIFEQLGAYIQESATFLEDTYRNAELDPVTTEEQVLDVKGYLSKVRGISEVLARRHMKVAFFGRTSNGKSTVINAMLWDKVLPSGIGHTTNCFLRVEGTDGHEAFLLTEGSEEKRSAKTVNQLAHALHQDKQLHAGSLVSVMWPNSKCPLLKDDLVLMDSPGIDVTTELDSWIDKFCLDADVFVLVANSESTLMQTEKHFFHKVSERLSRPNIFILNNRWDASASEPEYMEEVRRQHMERCTSFLVDELGVVDRSQAGDRIFFVSAKEVLNARIQKAQGMPEGGGALAEGFQVRMFEFQNFERRFEECISQSAVKTKFEQHTVRAKQIAEAVRLIMDSLHMAAREQQVYCEEMREERQDRLKFIDKQLELLAQDYKLRIKQITEEVERQVSTAMAEEIRRLSVLVDDYQMDFHPSPVVLKVYKNELHRHIEEGLGRNMSDRCSTAITNSLQTMQQDMIDGLKPLLPVSVRSQIDMLVPRQCFSLNYDLNCDKLCADFQEDIEFHFSLGWTMLVNRFLGPKNSRRALMGYNDQVQRPIPLTPANPSMPPLPQGSLTQEEFMVSMVTGLASLTSRTSMGILVVGGVVWKAVGWRLIALSFGLYGLLYVYERLTWTTKAKERAFKRQFVEHASEKLQLVISYTGSNCSHQVQQELSGTFAHLCQQVDVTRENLEQEIAAMNKKIEVLDSLQSKAKLLRNKAGWLDSELNMFTHQYLQPSR | 1 | 1 |  |
| CPSF1 (protein, UniProt Q10570 1-1443, looked up) Cleavage and polyadenylation …: MYAVYKQAHPPTGLEFSMYCNFFNNSERNLVVAGTSQLYVYRLNRDAEALTKNDRSTEGKAHREKLELAASFSFFGNVMSMASVQLAGAKRDALLLSFKDAKLSVVEYDPGTHDLKTLSLHYFEEPELRDGFVQNVHTPRVRVDPDGRCAAMLVYGTRLVVLPFRRESLAEEHEGLVGEGQRSSFLPSYIIDVRALDEKLLNIIDLQFLHGYYEPTLLILFEPNQTWPGRVAVRQDTCSIVAISLNITQKVHPVIWSLTSLPFDCTQALAVPKPIGGVVVFAVNSLLYLNQSVPPYGVALNSLTTGTTAFPLRTQEGVRITLDCAQATFISYDKMVISLKGGEIYVLTLITDGMRSVRAFHFDKAAASVLTTSMVTMEPGYLFLGSRLGNSLLLKYTEKLQEPPASAVREAADKEEPPSKKKRVDATAGWSAAGKSVPQDEVDEIEVYGSEAQSGTQLATYSFEVCDSILNIGPCANAAVGEPAFLSEEFQNSPEPDLEIVVCSGHGKNGALSVLQKSIRPQVVTTFELPGCYDMWTVIAPVRKEEEDNPKGEGTEQEPSTTPEADDDGRRHGFLILSREDSTMILQTGQEIMELDTSGFATQGPTVFAGNIGDNRYIVQVSPLGIRLLEGVNQLHFIPVDLGAPIVQCAVADPYVVIMSAEGHVTMFLLKSDSYGGRHHRLALHKPPLHHQSKVITLCLYRDLSGMFTTESRLGGARDELGGRSGPEAEGLGSETSPTVDDEEEMLYGDSGSLFSPSKEEARRSSQPPADRDPAPFRAEPTHWCLLVRENGTMEIYQLPDWRLVFLVKNFPVGQRVLVDSSFGQPTTQGEARREEATRQGELPLVKEVLLVALGSRQSRPYLLVHVDQELLIYEAFPHDSQLGQGNLKVRFKKVPHNINFREKKPKPSKKKAEGGGAEEGAGARGRVARFRYFEDIYGYSGVFICGPSPHWLLVTGRGALRLHPMAIDGPVDSFAPFHNVNCPRGFLYFNRQGELRISVLPAYLSYDAPWPVRKIPLRCTAHYVAYHVESKVYAVATSTNTPCARIPRMTGEEKEFETIERDERYIHPQQEAFSIQLISPVSWEAIPNARIELQEWEHVTCMKTVSLRSEETVSGLKGYVAAGTCLMQGEEVTCRGRILIMDVIEVVPEPGQPLTKNKFKVLYEKEQKGPVTALCHCNGHLVSAIGQKIFLWSLRASELTGMAFIDTQLYIHQMISVKNFILAADVMKSISLLRYQEESKTLSLVSRDAKPLEVYSVDFMVDNAQLGFLVSDRDRNLMVYMYLPEAKESFGGMRLLRRADFHVGAHVNTFWRTPCRGATEGLSKKSVVWENKHITWFATLDGGIGLLLPMQEKTYRRLLMLQNALTTMLPHHAGLNPRAFRMLHVDRRTLQNAVRNVLDGELLNRYLYLSTMERSELAKKIGTTPDIILDDLLETDRVTAHF |  |  | Total (total peptides) [4]: 18; Unique (unique peptides) [4]: 16; Total (peptides) [3]: 17; Unique (peptides) [3]: 17 |
| RRP8 (protein, UniProt O43159 1-456, looked up) Ribosomal RNA-processing …: MFEEPEWAEAAPVAAGLGPVISRPPPAASSQNKGSKRRQLLATLRALEAASLSQHPPSLCISDSEEEEEERKKKCPKKASFASASAEVGKKGKKKCQKQGPPCSDSEEEVERKKKCHKQALVGSDSAEDEKRKRKCQKHAPINSAQHLDNVDQTGPKAWKGSTTNDPPKQSPGSTSPKPPHTLSRKQWRNRQKNKRRCKNKFQPPQVPDQAPAEAPTEKTEVSPVPRTDSHEARAGALRARMAQRLDGARFRYLNEQLYSGPSSAAQRLFQEDPEAFLLYHRGFQSQVKKWPLQPVDRIARDLRQRPASLVVADFGCGDCRLASSIRNPVHCFDLASLDPRVTVCDMAQVPLEDESVDVAVFCLSLMGTNIRDFLEEANRVLKPGGLLKVAEVSSRFEDVRTFLRAVTKLGFKIVSKDLTNSHFFLFDFQKTGPPLVGPKAQLSGLQLQPCLYKRR | 1 | 1 | Total (total peptides) [5]: 1; Unique (unique peptides) [5]: 1; Total (peptides) [2]: 1; Unique (peptides) [2]: 1 |
| MICU1 (protein, UniProt Q9BPX6 34-476, looked up) Calcium uptake protein 1, …: MMVAFLGASAVTASTGLLWKRAHAESPPCVDNLKSDIGDKGKNKDEGDVCNHEKKTADLAPHPEEKKKKRSGFRDRKVMEYENRIRAYSTPDKIFRYFATLKVISEPGEAEVFMTPEDFVRSITPNEKQPEHLGLDQYIIKRFDGKKISQEREKFADEGSIFYTLGECGLISFSDYIFLTTVLSTPQRNFEIAFKMFDLNGDGEVDMEEFEQVQSIIRSQTSMGMRHRDRPTTGNTLKSGLCSALTTYFFGADLKGKLTIKNFLEFQRKLQHDVLKLEFERHDPVDGRITERQFGGMLLAYSGVQSKKLTAMQRQLKKHFKEGKGLTFQEVENFFTFLKNINDVDTALSFYHMAGASLDKVTMQQVARTVAKVELSDHVCDVVFALFDCDGNGELSNKEFVSIMKQRLMRGLEKPKDMGFTRLMQAMWKCAQETAWDFALPKQ | 1 | 1 |  |
